Source: PMC8293630
No constants are given. Whether binding was seen depends on the method and setting. In cells and extracts the contact can be indirect. Some results given as binding are weak or reduced against the parent protein; the word gives no strength.

Chains of the proteins cited; added tags and fusions are not shown. Residues count along the entry.
UniProt P07766, residues 23-207: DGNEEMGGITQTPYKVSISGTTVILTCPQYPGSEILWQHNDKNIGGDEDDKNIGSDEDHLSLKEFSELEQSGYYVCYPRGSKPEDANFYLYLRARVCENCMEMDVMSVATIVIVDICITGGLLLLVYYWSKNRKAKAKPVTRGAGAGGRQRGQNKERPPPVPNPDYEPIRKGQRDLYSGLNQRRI

Target: CD3ε, endogenous in J76 Jurkat cells (human (endogenous in Jurkat J76)) (UniProt P07766)
Test: co-IP; J76 CD8+ 1G4 cells with mono-biotinylated UCHT1-Fab' or biotinylated UCHT1 mAb (anti-CD3ε) for 5 min at 37°C or on ice, ± A770041; lysis in 0.5% DDM, 150 mM NaCl, 20 mM Tris pH 8.0; streptavidin Sepharose 1 h at 4°C; immunoblot of ε, β (HA), ζ; ratios to ε

binding: binds
Substance: CD3ζ (ζζ), endogenous in J76 Jurkat cells (from UniProt P20963-1 22-164)
